Results from patent US11617796B2 (CAREGEN CO., LTD., priority 2016, dated 2023).

Experiment: general procedure: Fmoc solid-phase peptide synthesis; CTL resin; Bop/HoBt/DIEA
Settings: whole synthesis

Substance: H-RQTRVQRCHC-OH (cysteine pairing not given here)
- crude mass: 0.65 g
- crude yield (scale of the general procedure 700 mg resin): 92.6%
